# Source: the supplement of paper PMC11732987, “Enantioselective OTUD7B fragment discovery through chemoproteomics screening and high-throughput optimisation” (Communications Chemistry, 2025)
# Chains of the proteins cited; added tags and fusions are not shown. Lines headed by an entry give the natural chain unless they say otherwise; changes in a name come on top. Residues count along the entry.
# UniProt Q9Y2D8: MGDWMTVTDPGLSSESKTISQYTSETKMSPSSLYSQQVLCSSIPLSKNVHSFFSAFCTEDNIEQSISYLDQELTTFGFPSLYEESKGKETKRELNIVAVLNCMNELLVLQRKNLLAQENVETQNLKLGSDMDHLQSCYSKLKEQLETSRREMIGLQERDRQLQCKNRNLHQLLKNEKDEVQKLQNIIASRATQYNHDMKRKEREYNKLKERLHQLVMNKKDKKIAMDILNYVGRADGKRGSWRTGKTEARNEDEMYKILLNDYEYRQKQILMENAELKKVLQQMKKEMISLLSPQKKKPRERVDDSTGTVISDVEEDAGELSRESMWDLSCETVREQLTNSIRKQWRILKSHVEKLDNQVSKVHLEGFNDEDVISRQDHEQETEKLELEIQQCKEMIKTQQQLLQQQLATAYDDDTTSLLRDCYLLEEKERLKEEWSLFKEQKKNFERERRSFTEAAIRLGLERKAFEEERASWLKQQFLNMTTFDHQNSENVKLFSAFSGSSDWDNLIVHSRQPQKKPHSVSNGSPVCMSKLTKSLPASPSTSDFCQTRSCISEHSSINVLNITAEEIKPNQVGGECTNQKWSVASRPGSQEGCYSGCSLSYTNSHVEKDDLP
# UniProt Q8WXH0, 2250-2270: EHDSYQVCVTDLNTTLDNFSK
# UniProt O75177: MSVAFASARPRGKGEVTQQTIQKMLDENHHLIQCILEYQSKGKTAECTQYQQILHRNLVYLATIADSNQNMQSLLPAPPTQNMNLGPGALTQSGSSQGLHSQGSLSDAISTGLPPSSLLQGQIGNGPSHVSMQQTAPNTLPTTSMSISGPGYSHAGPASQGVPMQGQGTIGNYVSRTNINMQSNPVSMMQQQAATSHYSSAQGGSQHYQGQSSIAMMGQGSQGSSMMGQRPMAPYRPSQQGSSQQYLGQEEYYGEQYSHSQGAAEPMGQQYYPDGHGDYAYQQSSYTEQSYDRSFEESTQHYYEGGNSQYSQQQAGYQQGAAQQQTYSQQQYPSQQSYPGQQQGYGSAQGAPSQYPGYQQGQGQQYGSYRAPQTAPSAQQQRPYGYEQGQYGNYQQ
# UniProt O95210: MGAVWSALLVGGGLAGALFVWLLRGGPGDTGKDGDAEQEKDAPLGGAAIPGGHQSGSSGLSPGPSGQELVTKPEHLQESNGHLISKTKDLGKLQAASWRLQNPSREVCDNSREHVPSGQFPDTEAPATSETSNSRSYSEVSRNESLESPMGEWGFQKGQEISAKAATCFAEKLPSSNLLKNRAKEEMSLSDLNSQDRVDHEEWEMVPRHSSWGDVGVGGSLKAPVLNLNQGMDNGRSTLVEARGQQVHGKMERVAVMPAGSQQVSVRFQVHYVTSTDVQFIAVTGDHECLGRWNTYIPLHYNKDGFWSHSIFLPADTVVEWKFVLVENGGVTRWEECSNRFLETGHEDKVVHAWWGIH
# UniProt O15270: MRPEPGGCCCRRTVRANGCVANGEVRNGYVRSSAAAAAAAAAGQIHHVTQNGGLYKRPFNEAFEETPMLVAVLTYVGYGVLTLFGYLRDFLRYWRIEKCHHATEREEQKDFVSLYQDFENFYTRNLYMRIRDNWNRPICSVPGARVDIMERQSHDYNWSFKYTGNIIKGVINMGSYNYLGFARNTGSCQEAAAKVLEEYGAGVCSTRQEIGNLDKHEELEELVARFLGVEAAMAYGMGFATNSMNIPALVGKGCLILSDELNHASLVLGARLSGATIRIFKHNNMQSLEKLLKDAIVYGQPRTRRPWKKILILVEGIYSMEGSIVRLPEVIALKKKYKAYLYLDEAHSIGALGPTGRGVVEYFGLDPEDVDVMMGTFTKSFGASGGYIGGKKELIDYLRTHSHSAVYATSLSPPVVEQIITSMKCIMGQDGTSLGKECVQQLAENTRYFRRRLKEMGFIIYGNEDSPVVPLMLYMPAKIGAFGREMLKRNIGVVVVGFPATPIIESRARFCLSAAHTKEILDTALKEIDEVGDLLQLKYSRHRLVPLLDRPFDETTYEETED
# UniProt Q9NUL3: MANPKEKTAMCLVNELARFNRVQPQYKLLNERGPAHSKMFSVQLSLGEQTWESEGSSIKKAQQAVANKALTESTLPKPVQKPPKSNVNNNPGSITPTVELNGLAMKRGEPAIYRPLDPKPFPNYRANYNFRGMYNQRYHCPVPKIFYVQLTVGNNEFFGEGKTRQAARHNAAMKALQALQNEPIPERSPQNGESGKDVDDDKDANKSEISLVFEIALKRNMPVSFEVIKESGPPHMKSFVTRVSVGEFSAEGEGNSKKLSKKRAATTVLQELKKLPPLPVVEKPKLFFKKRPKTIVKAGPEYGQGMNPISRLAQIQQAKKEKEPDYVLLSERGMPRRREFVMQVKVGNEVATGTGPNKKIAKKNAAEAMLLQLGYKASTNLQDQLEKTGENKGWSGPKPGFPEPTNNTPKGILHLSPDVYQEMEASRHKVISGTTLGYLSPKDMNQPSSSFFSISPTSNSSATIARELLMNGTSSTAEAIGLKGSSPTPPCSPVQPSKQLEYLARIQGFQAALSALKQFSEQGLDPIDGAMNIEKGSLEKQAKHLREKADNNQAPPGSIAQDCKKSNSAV
# UniProt Q6ZWJ1: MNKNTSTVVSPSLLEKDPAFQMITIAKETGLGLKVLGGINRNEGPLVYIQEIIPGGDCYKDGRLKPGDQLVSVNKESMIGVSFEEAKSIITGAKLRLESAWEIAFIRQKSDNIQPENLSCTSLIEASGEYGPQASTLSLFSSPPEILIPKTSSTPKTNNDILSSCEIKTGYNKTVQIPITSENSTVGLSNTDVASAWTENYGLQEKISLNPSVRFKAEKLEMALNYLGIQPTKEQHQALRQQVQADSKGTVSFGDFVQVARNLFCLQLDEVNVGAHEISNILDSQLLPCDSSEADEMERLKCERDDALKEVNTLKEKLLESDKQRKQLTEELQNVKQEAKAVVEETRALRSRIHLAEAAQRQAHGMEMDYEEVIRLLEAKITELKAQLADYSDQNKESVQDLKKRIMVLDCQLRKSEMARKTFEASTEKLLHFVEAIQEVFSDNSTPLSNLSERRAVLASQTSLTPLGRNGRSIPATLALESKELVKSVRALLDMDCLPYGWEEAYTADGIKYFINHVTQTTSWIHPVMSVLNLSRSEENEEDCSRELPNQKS
# UniProt O14662: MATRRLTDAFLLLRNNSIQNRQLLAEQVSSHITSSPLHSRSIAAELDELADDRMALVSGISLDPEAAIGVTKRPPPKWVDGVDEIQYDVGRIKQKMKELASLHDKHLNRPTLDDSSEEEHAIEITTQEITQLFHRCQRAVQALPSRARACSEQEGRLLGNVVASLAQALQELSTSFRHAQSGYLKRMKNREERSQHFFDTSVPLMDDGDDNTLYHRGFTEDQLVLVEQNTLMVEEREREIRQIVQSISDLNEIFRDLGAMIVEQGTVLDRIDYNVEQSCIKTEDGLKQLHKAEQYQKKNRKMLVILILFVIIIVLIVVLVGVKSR
# UniProt Q15468: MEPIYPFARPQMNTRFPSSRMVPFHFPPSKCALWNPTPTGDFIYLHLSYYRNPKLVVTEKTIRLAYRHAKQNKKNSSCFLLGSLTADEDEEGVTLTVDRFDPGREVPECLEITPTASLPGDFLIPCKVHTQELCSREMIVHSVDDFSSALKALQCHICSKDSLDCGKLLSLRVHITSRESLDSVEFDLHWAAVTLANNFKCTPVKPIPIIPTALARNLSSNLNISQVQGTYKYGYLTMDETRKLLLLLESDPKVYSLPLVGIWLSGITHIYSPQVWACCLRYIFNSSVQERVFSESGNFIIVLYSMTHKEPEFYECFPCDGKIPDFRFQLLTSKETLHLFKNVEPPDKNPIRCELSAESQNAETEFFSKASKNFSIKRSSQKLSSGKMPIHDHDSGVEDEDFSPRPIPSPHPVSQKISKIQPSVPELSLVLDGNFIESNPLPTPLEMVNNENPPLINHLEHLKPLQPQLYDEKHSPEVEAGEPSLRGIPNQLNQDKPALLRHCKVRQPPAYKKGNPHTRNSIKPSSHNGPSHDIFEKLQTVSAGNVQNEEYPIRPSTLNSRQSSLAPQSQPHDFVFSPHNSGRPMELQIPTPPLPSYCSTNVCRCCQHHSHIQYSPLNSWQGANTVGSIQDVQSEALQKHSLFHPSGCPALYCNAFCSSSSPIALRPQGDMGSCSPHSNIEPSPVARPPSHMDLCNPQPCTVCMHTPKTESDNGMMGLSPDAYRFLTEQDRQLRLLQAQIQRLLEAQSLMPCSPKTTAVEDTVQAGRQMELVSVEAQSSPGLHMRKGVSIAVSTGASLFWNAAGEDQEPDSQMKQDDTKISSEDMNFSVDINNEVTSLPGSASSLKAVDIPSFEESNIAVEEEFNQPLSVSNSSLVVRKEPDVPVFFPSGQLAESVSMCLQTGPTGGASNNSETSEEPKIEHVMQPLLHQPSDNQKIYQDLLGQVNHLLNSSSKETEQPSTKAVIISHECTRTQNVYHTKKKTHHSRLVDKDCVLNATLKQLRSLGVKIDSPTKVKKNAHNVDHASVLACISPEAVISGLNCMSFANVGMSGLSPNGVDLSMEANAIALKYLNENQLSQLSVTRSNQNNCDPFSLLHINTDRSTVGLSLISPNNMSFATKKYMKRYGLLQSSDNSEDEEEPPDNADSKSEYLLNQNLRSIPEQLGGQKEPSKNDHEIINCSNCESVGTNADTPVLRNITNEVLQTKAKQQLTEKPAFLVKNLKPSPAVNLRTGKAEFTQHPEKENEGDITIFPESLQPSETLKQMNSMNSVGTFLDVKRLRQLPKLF
# UniProt Q8IX01: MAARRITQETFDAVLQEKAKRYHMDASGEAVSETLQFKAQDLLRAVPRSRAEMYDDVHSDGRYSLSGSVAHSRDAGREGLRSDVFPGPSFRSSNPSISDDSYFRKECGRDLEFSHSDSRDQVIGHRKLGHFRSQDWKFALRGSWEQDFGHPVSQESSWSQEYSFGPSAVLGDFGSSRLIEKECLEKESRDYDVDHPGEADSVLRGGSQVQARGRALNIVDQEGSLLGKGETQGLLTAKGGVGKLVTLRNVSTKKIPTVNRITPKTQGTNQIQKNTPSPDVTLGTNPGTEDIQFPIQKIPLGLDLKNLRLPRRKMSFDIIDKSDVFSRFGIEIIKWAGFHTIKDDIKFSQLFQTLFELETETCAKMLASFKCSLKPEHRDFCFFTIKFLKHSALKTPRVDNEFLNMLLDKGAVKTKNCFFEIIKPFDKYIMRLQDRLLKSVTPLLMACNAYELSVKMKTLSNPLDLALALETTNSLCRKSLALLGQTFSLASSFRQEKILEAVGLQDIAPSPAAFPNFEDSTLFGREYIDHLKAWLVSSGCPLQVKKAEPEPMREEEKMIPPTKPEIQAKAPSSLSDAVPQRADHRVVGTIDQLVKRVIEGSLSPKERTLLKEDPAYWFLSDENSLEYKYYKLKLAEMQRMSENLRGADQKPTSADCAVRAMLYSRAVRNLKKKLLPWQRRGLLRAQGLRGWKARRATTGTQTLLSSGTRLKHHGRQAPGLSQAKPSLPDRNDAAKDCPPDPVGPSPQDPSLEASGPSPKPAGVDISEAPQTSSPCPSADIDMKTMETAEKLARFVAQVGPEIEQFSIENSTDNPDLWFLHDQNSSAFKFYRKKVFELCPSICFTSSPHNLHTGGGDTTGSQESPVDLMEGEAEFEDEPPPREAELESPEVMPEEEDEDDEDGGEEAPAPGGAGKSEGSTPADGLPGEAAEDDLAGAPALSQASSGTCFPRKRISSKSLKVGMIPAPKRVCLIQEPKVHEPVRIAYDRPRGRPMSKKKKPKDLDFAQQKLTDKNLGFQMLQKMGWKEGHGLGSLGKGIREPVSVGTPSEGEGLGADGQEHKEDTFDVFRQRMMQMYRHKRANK
# UniProt O60506: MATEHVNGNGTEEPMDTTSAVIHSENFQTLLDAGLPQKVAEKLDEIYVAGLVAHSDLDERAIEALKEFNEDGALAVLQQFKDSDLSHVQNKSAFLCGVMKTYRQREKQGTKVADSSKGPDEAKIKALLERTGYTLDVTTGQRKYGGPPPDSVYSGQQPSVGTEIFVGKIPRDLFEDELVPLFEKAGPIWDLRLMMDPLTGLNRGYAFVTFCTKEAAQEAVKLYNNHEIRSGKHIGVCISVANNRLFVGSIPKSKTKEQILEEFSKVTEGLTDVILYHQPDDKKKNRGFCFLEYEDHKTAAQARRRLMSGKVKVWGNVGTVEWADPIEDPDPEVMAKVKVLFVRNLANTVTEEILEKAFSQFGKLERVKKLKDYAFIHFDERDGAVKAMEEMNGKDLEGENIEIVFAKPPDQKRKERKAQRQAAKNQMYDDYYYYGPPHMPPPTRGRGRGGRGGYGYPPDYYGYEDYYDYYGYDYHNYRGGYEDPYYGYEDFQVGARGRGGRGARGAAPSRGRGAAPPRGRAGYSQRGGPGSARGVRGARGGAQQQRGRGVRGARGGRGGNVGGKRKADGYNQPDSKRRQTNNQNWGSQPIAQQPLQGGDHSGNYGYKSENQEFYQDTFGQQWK
# UniProt Q8TCT8, 492-520: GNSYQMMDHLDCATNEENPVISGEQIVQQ
# UniProt Q8WWL2, 486-505: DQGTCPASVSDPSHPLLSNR
# UniProt Q96SB4, 346-375: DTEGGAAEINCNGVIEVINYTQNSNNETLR
# The list shows a part of the results. The data scatter; read single values as rough.
# Experiments:
# [1] = compound: ClCC(=O)N[C@@H]1CCCc2ccccc12; assay: log2 mean competition ratio of IA-DTB cysteine labelling (DMSO/compound) (log2 ratio); higher = stronger cysteine engagement by compound; details: treatment time: 4 h, cell line lysate: HEK293T
# Method: (§1)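 IA-DTB competitive cysteine chemoproteomics in HEK293T RIPA lysate. Lysates were treated with compound 29 or 30 at 50 or 200 µM for 4 h, then IA-DTB (500 µM, 1 h), trypsin-digested, NeutrAvidin-enriched and analysed by diaPASEF. Competition ratio = intensity DMSO / intensity compound (n=4 treated, n=64 DMSO); binding: mean log2 CR ≥ 1 and p ≤ 0.05 plus QC filters. Target is the cysteine site.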
# [2] = compound: ClCC(=O)N[C@H]1CCCc2ccccc12; assay: as above; details: treatment time: 4 h, cell line lysate: HEK293T
# Method: as §1
Target,log2 mean competition ratio ([1]; 50 µM),log2 mean competition ratio ([1]; 200 µM),log2 mean competition ratio ([2]; 50 µM),log2 mean competition ratio ([2]; 200 µM)
SRRM2 C872 (UniProt Q9UQ35),0.0458,0.0608,0.0705,0.168
SSX2IP C331 (UniProt Q9Y2D8),0.00817,0.0495,0.266,0.239
SYNE2 C6161 (UniProt Q8WXH0),0.145,-0.218,0.072,-0.241
SS18L1 C47 (UniProt O75177),0.271,0.217,-0.164,0.133
SYNE2 C2257 (UniProt Q8WXH0),0.112,-0.206,-0.177,-0.134
STBD1 C168 (UniProt O95210),-0.137,-0.078,0.23,-0.0978
SPTLC2 C438 (UniProt O15270),0.145,-0.131,-0.287,-0.226
STK39 C525 (UniProt Q9UEW8),-0.058,-0.215,0.115,-0.219
SRSF1 C148 (UniProt Q07955),-0.123,-0.218,-0.195,-0.0646
SRBD1 C294 (UniProt Q8N5C6),-0.088,0.0174,–,0.0934
STAU2 C491 (UniProt Q9NUL3),0.2,-0.17,-0.0375,-0.222
SSU72 C12 (UniProt Q9NP77),-0.408,0.133,-0.586,0.371
STRBP C142 (UniProt Q96SI9),-0.0313,0.154,0.233,-0.245
SUPT5H C740 (UniProt O00267),-0.00125,-0.00889,0.0818,-0.117
SRRM2 C785 (UniProt Q9UQ35),0.0728,-0.0318,0.231,0.0112
STXBP4 C544 (UniProt Q6ZWJ1),-0.109,-0.283,-0.142,0.481
STX16 C279 (UniProt O14662),-0.0686,-0.156,-0.098,-0.261
STIL C752 (UniProt Q15468),0.0907,0.0653,-0.487,0.0681
SPG11 C1890 (UniProt Q96JI7),0.272,-0.121,-0.0021,0.0122
SRGAP2 C370,0.237,0.0325,0.153,-0.051
SSH1 C564,0.425,0.629,-0.276,-0.241
STAG2 C869 (UniProt Q8N3U4),0.13,-0.2,0.0426,-0.233
SUGP2 C371 (UniProt Q8IX01),0.481,-0.386,0.487,-0.29
STK39 C450 (UniProt Q9UEW8),0.36,-0.115,-0.136,-0.134

# Full records, quoted from the list. Values in the order: log2 mean competition ratio ([1]; 50 µM)	log2 mean competition ratio ([1]; 200 µM)	log2 mean competition ratio ([2]; 50 µM)	log2 mean competition ratio ([2]; 200 µM)
# SUGP2 C371 (UniProt Q8IX01) is listed as 0.481	-0.386	0.487	-0.29
# SSH1 C564 is listed as 0.425	0.629	-0.276	-0.241
# STXBP4 C544 (UniProt Q6ZWJ1) is listed as -0.109	-0.283	-0.142	0.481

# Continued.

Target,log2 mean competition ratio ([1]; 50 µM),log2 mean competition ratio ([1]; 200 µM),log2 mean competition ratio ([2]; 50 µM),log2 mean competition ratio ([2]; 200 µM)
SYNCRIP C289 (UniProt O60506),-0.156,0.085,0.0302,0.0248
STAT1 C155 (UniProt P42224),-0.0749,0.136,0.0101,0.0735
SYNE2 C601 (UniProt Q8WXH0),-0.172,-0.0436,-0.192,0.0745
SYNE2 C5212 (UniProt Q8WXH0),-0.095,-0.295,-0.213,-0.117
SPATS2L C351 (UniProt Q9NUQ6),0.186,-0.049,-0.331,-0.366
SPPL2A C503 (UniProt Q8TCT8),0.124,-0.0627,–,-0.489
SPATS2 C61 (UniProt Q86XZ4),0.324,0.309,0.261,0.144
STX7 C28 (UniProt O15400),-0.169,-0.216,–,-0.339
SPIRE2 C490 (UniProt Q8WWL2),0.0666,0.131,-0.275,-0.0829
SRPK1 C356 (UniProt Q96SB4),-0.527,-0.0119,0.142,-0.236
SUGP2 C183 (UniProt Q8IX01),-0.192,0.112,-0.0672,0.0943
SYNE2 C568 (UniProt Q8WXH0),-0.0499,0.33,0.487,0.523
STXBP3 C546 (UniProt O00186),0.399,-0.132,0.245,-0.189
SSH2 C1054 (UniProt Q76I76),-0.111,-0.0631,-0.126,0.029
SPECC1L C395 (UniProt Q69YQ0),-0.232,0.0746,-0.0553,-0.102
SYNE2 C6121 (UniProt Q8WXH0),0.312,0.22,0.271,0.551
SPTBN2 C2030 (UniProt O15020),0.531,-0.137,-0.167,-0.11
SSB C245,-0.0523,0.143,-0.156,-0.223
STIP1 C461,-0.259,-0.112,0.0699,0.113
SPTLC2 C425 (UniProt O15270),0.012,-0.23,-0.247,-0.138
SRBD1 C912 (UniProt Q8N5C6),-0.617,-0.452,-0.148,-0.372
SYMPK C969 (UniProt Q92797),-0.0486,-0.0756,-0.0175,-0.00784
STAT5B C688 (UniProt P51692),0.324,0.0157,0.184,0.034
SQSTM1 C113 (UniProt Q13501),-0.00255,0.12,-0.195,0.00829
